{"source": "the supplement of paper PMC7666118", "note": "Some of the results follow.", "data": [{"compound": "COc1ccc(Cn2ccc3ccc(C(=O)NO)cc32)cc1", "experiment": "dose-dependent thermal stabilisation call (2D-TPP, DLPTP, 10% FDR) (binary (1 = stabilised)); higher = stabilised by the compound", "conditions": "system: HL-60 intact cells; concentration range 0.04-10 µM", "values": [{"target": "C13ORF27 (UniProt Q5JUR7)", "dose-dependent thermal stabilisation call": "inactive: 0"}, {"target": "ATG4B (UniProt Q9Y4P1)", "dose-dependent thermal stabilisation call": "inactive: 0"}, {"target": "ATP5L (UniProt O75964)", "dose-dependent thermal stabilisation call": "inactive: 0"}, {"target": "BASP1 (UniProt P80723)", "dose-dependent thermal stabilisation call": "inactive: 0"}, {"target": "ATP11B (UniProt Q9Y2G3)", "dose-dependent thermal stabilisation call": "inactive: 0"}, {"target": "B3GALNT2 (UniProt Q8NCR0)", "dose-dependent thermal stabilisation call": "inactive: 0"}, {"target": "BCAP31 (UniProt P51572)", "dose-dependent thermal stabilisation call": "inactive: 0"}, {"target": "BCKDHB (UniProt P21953)", "dose-dependent thermal stabilisation call": "inactive: 0"}, {"target": "ASF1A (UniProt Q9Y294)", "dose-dependent thermal stabilisation call": "inactive: 0"}, {"target": "BUD31 (UniProt P41223)", "dose-dependent thermal stabilisation call": "inactive: 0"}, {"target": "BGLAP (UniProt P02818)", "dose-dependent thermal stabilisation call": "inactive: 0"}, {"target": "C11ORF46 (UniProt Q8N8R7)", "dose-dependent thermal stabilisation call": "inactive: 0"}, {"target": "BPHL (UniProt Q86WA6)", "dose-dependent thermal stabilisation call": "inactive: 0"}, {"target": "C10ORF32 (UniProt Q96B45)", "dose-dependent thermal stabilisation call": "inactive: 0"}, {"target": "BUB3 (UniProt O43684)", "dose-dependent thermal stabilisation call": "active: 1"}, {"target": "B4GALT7 (UniProt Q9UBV7)", "dose-dependent thermal stabilisation call": "inactive: 0"}, {"target": "BCKDK (UniProt O14874)", "dose-dependent thermal stabilisation call": "inactive: 0"}, {"target": "ARPP-19", "dose-dependent thermal stabilisation call": "inactive: 0"}, {"target": "C10ORF76 (UniProt Q5T2E6)", "dose-dependent thermal stabilisation call": "inactive: 0"}, {"target": "BRCC3 (UniProt P46736)", "dose-dependent thermal stabilisation call": "inactive: 0"}, {"target": "ARL6IP1 (UniProt Q15041)", "dose-dependent thermal stabilisation call": "inactive: 0"}, {"target": "ARMCX3 (UniProt Q9UH62)", "dose-dependent thermal stabilisation call": "inactive: 0"}, {"target": "ASNS (UniProt P08243)", "dose-dependent thermal stabilisation call": "inactive: 0"}, {"target": "ATP1A1 (UniProt P05023)", "dose-dependent thermal stabilisation call": "inactive: 0"}, {"target": "C10ORF88 (UniProt Q9H8K7)", "dose-dependent thermal stabilisation call": "inactive: 0"}, {"target": "C12ORF73 (UniProt Q69YU5)", "dose-dependent thermal stabilisation call": "inactive: 0"}, {"target": "ARPC1A (UniProt Q92747)", "dose-dependent thermal stabilisation call": "inactive: 0"}, {"target": "ATP5SL (UniProt Q9NW81)", "dose-dependent thermal stabilisation call": "inactive: 0"}, {"target": "BTD (UniProt P43251)", "dose-dependent thermal stabilisation call": "inactive: 0"}, {"target": "ASL (UniProt P04424)", "dose-dependent thermal stabilisation call": "inactive: 0"}, {"target": "AUP1 (UniProt Q9Y679)", "dose-dependent thermal stabilisation call": "inactive: 0"}, {"target": "BCL2L13 (UniProt Q9BXK5)", "dose-dependent thermal stabilisation call": "inactive: 0"}, {"target": "ATPAF1 (UniProt Q5TC12)", "dose-dependent thermal stabilisation call": "inactive: 0"}, {"target": "ATP1B1 (UniProt P05026)", "dose-dependent thermal stabilisation call": "inactive: 0"}, {"target": "BLOC1S1 (UniProt P78537)", "dose-dependent thermal stabilisation call": "inactive: 0"}, {"target": "ARPC4 (UniProt P59998)", "dose-dependent thermal stabilisation call": "inactive: 0"}, {"target": "BSDC1 (UniProt Q9NW68)", "dose-dependent thermal stabilisation call": "inactive: 0"}]}]}
